PubChem BioAssay AID743121 – NCATS | 2013

- Purpose: 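Partners whose loss is lethal together with topoisomerase I blockade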 (primary screen)
- Cell system: MDA-MB-231 cells, a human breast cancer line
- Knock-down reagent: single siRNA against human genes, 20 nM siRNA (0.8 pmol per well)
- Time to read-out: 120 h (drug added 48 h after transfection, read 72 h later)
- Challenge: camptothecin 20 nM (about EC30) for 72 h; vehicle 0.1% DMSO in parallel plates
- Measured: 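Cell viability by ATP luminescence (CellTiter-Glo) as % of non-targeting siRNA wells, and the log2 ratio of viability without drug over viability with camptothecin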
- Scale: log2 vehicle/camptothecin viability: higher = stronger sensitisation to camptothecin; viability with camptothecin: higher = more viable cells
- Call rule: 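Each gene scored by redundant siRNA activity (RSA) over its individual siRNA ratios; a gene is called active at p < 0.001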
Here is a random part of about 26,000 reagents tested. 167 of all reagents (0.63%) count as active. 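Calls are per gene from RSA p-values that are not deposited; an individual active-marked siRNA can sensitise only weakly.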 Unmarked entries are inactive. The numbers tell different reagents against one gene apart. Not all columns of the deposit are shown. Reagent sequences are not shown.

| target | reagent no. | log2 vehicle/camptothecin viability | viability with camptothecin (% of control) |
| --- | --- | --- | --- |
| GAN | 1 | -0.249 | 101 |
| GAN | 2 | -0.00508 | 42.7 |
| GAN | 3 | 0.203 | 84.4 |
| GAN | 4 | -0.0771 | 117 |
| KLK13 | 1 | -0.334 | 82 |
| KLK13 | 2 | -0.429 | 76.1 |
| KLK13 | 3 | 0.134 | 81.7 |
| KLK13 | 4 | -0.391 | 72.5 |
| CXCL9 | 1 | 0.92 | 26.2 |
| CXCL9 | 2 | -0.325 | 38.3 |
| CXCL9 | 3 | -0.261 | 102 |
| CXCL9 | 4 | 0.00154 | 36.6 |
| SPAM1 | 1 | -0.163 | 56.7 |
| SPAM1 | 2 | -0.0991 | 107 |
| SPAM1 | 3 | -0.36 | 90 |
| SPAM1 | 4 | 0.117 | 60.2 |
| STX3 | 1 | -0.151 | 92.3 |
| STX3 | 2 | -0.112 | 73.7 |
| STX3 | 3 | -0.165 | 107 |
| ENG | 1 | -1.2 | 71.3 |
| ENG | 2 | -0.28 | 65 |
| ENG | 3 | -0.335 | 116 |
| ENG | 4 | 0.165 | 74.2 |
| FGFR4 | 1 | -0.757 | 62.7 |
| FGFR4 | 2 | -0.091 | 35.1 |
| FGFR4 | 3 | -0.367 | 23.1 |
| FGFR4 | 4 | -0.459 | 100 |
| NCAM1 | 1 | 1.09 (active) | 28.8 |
| NCAM1 | 2 | 1.11 (active) | 9.16 |
| NCAM1 | 3 | -0.238 (active) | 67.2 |
| ADAMTS10 | 1 | -0.488 | 102 |
| ADAMTS10 | 2 | -0.669 | 88 |
| ADAMTS10 | 3 | -0.19 | 71.8 |
| ADAMTS10 | 4 | -0.186 | 75.4 |
| DYRK2 | 1 | -0.163 | 81.4 |
| DYRK2 | 2 | 0.0322 | 46.9 |
| DYRK2 | 3 | -0.166 | 82.8 |
| DYRK2 | 4 | -0.258 | 65.8 |

Part of the list above, set out differently:
target	reagent no.	log2 vehicle/camptothecin viability	viability with camptothecin (% of control)
STX3	2	-0.112	73.7
STX3	3	-0.165	107
ENG	1	-1.2	71.3
ENG	2	-0.28	65
ENG	3	-0.335	116
ENG	4	0.165	74.2
FGFR4	1	-0.757	62.7
FGFR4	2	-0.091	35.1
FGFR4	3	-0.367	23.1
FGFR4	4	-0.459	100
NCAM1	1	1.09 (active)	28.8
NCAM1	2	1.11 (active)	9.16
NCAM1	3	-0.238 (active)	67.2

The listing continues:
| target | reagent no. | log2 vehicle/camptothecin viability | viability with camptothecin (% of control) |
| --- | --- | --- | --- |
| ADAD1 | 1 | -0.118 | 116 |
| ADAD1 | 2 | -0.114 | 91.3 |
| ADAD1 | 3 | 0.563 | 27.3 |
| ADAD1 | 4 | -0.242 | 126 |
| ECT2 | 1 | -0.167 | 122 |
| ECT2 | 2 | 0.125 | 52.3 |
| ECT2 | 3 | -0.0917 | 76.9 |
| ECT2 | 4 | -0.21 | 44.8 |
| BBS2 | 1 | 0.538 | 35.9 |
| BBS2 | 2 | 0.245 | 75.5 |
| BBS2 | 3 | 0.292 | 55.6 |
| BBS2 | 4 | -0.0853 | 110 |
| RUNX1 | 1 | -0.0733 | 110 |
| RUNX1 | 2 | 0.624 | 5.85 |
| RUNX1 | 3 | 0.272 | 77.9 |
| RUNX1 | 4 | 0.0381 | 88.5 |
| HMOX1 | 1 | -0.249 | 63.2 |
| HMOX1 | 2 | -0.0316 | 30.6 |
| HMOX1 | 3 | -0.135 | 79.8 |
| HMOX1 | 4 | -0.0294 | 68.2 |
| ULK2 | 1 | -0.289 | 106 |
| ULK2 | 2 | -0.206 | 97.2 |
| ULK2 | 3 | -0.519 | 50.7 |
| ULK2 | 4 | -0.212 | 43.2 |
| EVL | 1 | -0.109 | 97.8 |
| EVL | 2 | -0.291 | 60.2 |
| EVL | 3 | 0.0132 | 52.6 |
| EVL | 4 | 0.28 | 19.6 |
| ITGAV | 1 | -0.14 | 46.4 |
| ITGAV | 2 | -0.509 | 64 |
| ITGAV | 3 | -0.124 | 84.2 |
| ITGAV | 4 | -0.459 | 66.3 |
| PPARGC1B | 1 | -0.148 | 87 |
| PPARGC1B | 2 | -0.331 | 92.4 |
| PPARGC1B | 3 | 0.822 | 46.6 |
| P2RY12 | 1 | -0.131 | 69.6 |
| P2RY12 | 2 | -0.138 | 56 |
| P2RY12 | 3 | -0.523 | 91.2 |
| P2RY12 | 4 | -0.277 | 88.3 |
| WDR3 | 1 | -0.15 | 102 |
| WDR3 | 2 | -0.43 | 74.6 |
| WDR3 | 3 | -0.283 | 37.1 |
| WDR3 | 4 | -0.237 | 68.6 |
| TRPS1 | 1 | -0.0544 | 101 |
| TRPS1 | 2 | -0.0827 | 94.4 |
| TRPS1 | 3 | -0.0163 | 99.2 |
| TRPS1 | 4 | 0.109 | 65.1 |
| BTNL8 | 1 | -0.203 | 74.1 |
| BTNL8 | 2 | -0.211 | 121 |
| BTNL8 | 3 | 1.73 | 8.63 |
| BTNL8 | 4 | -0.213 | 106 |
